What all share (experiment): DAPPL (digital affinity profiling via proximity ligation, sequencing)
What all share (conditions): 10 mM Tris-HCl pH 7.5, 50 mM NaCl, 1 mM DTT, 4% glycerol, room temperature, 30 min; GST-TFs on glutathione beads, 16-mer random dsDNA library, 0.1% …; high values mean tight binding; double strand, one strand shown; scale: fold enrichment (6-mer frequency, TF over GST control)

Sequences of proteins named here, by UniProt entry; tags and fusion partners are left off. A change or cut given only in a name is not applied to a line headed by its entry.
UniProt P50549: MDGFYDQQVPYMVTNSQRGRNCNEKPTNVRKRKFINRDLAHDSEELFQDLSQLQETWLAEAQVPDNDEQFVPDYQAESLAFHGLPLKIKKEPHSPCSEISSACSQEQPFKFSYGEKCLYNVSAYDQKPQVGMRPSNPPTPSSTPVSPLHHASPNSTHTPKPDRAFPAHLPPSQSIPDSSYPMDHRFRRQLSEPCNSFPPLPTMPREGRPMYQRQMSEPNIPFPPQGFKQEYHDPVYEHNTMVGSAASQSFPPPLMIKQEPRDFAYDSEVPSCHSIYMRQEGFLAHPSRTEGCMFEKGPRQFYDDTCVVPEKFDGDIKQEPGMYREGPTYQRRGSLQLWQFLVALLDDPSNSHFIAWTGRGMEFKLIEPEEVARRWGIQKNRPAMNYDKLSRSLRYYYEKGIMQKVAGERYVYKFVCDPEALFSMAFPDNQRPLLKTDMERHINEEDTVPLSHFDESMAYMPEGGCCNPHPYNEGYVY
UniProt P32519: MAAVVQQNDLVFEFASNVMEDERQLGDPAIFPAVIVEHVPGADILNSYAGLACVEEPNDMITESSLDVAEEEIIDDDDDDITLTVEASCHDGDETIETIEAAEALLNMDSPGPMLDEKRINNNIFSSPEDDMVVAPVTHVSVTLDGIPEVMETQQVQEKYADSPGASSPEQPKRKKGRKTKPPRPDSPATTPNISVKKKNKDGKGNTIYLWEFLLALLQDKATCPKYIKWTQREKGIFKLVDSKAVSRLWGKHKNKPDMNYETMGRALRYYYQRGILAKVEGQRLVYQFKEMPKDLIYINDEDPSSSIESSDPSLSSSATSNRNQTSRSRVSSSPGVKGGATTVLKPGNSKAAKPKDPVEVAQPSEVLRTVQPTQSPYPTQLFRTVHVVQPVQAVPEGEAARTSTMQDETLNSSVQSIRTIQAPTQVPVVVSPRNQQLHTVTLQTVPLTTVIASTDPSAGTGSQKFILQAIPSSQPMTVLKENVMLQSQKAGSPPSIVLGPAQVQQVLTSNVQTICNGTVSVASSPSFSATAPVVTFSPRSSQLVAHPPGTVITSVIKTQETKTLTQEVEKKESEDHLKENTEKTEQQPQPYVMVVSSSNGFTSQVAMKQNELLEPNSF

One assay deals with T1, ERG (UniProt P11308).
T1 sequence: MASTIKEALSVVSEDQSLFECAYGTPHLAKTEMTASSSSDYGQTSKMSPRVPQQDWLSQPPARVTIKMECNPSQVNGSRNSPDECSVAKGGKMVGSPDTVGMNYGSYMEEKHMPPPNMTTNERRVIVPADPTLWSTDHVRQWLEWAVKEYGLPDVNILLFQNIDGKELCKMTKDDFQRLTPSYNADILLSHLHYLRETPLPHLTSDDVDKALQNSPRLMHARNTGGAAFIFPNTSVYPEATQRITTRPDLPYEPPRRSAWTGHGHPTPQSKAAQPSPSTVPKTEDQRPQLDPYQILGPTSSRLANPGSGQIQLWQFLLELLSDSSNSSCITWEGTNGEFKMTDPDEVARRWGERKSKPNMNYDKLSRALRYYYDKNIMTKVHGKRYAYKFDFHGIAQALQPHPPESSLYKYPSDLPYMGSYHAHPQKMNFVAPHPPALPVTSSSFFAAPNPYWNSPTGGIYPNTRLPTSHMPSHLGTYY

The next assay concerns the target T2, ELK4 (UniProt P28324-2).
T2 sequence: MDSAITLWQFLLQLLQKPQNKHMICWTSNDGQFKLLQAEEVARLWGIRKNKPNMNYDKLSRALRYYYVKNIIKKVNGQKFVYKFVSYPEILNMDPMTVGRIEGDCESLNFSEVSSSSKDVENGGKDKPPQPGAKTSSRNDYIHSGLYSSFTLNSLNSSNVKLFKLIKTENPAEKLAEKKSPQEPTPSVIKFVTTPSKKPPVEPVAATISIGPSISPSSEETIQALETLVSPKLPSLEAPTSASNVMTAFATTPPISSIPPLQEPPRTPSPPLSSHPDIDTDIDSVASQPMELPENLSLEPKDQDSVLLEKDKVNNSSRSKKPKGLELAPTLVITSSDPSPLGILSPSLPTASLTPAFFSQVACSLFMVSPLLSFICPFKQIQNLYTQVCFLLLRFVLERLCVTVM

Another assay deals with T3, ETV4 (UniProt P43268).
T3 sequence: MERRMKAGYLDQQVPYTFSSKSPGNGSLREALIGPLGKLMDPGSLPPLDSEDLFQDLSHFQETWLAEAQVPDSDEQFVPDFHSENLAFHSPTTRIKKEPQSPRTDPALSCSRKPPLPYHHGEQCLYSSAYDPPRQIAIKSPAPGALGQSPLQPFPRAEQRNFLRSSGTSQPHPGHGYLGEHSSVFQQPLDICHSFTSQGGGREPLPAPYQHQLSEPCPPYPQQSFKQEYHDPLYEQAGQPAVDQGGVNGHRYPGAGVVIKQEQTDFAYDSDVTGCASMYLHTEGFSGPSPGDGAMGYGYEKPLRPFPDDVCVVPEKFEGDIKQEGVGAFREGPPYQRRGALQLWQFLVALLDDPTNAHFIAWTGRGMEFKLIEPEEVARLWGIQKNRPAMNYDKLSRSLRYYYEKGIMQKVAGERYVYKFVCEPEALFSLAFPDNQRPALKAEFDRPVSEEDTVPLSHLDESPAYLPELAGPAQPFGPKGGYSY

Another assay deals with ETV1 (UniProt P50549).
For a further assay, the target named is T4, ERF (UniProt P50548).
T4 sequence: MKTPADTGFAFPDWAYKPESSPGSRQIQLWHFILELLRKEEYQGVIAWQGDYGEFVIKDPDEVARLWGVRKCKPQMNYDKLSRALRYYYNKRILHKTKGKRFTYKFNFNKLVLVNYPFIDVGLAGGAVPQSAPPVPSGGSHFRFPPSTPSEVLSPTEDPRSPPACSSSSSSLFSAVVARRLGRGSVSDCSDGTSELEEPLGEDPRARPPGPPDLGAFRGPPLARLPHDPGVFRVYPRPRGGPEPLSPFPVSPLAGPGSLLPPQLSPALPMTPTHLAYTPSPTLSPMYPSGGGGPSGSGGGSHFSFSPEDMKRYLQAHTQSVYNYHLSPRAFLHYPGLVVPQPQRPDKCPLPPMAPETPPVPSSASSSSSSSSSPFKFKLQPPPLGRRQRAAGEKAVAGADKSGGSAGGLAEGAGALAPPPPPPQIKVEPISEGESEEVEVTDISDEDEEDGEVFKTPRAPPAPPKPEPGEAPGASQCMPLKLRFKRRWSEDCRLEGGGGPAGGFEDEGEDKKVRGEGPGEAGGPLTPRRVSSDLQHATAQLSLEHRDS

The target in a further assay is ELF1 (UniProt P32519).

This is a selection; strong and weak results do not stand in their true shares. For part of these data: At the low end of the ranking the order means little. Some of the results follow. For part of these data: The source does not settle which construct or isoform was used.

As to GATGGG, the binding signal was 0.998 with ERG, 1.01 with ELK4 and 1 in the assay with ETV4.
Turning to TGATTC, the binding signal with ERG turned out to be 1.08; in the assay with ELK4 it was 0.996; with ETV4 it was 1.2; with ETV1, 1.18.
For the sequence AATCAG, the results for the binding signal with ERG, in the assay with ELK4 and with ETV4 were 1.07, 1.16 and 1.07, respectively.
Turning to TTTGAT, the binding signal with ERG came out at 1.3; with ELK4 it was 1.2; in the assay with ETV4 it was 1.39.
As to ACGCCG, the binding signal with ERG was 1.02; in the assay with ELK4, 0.961; in the assay with ETV4, 1.15.
Regarding AACCGA, the binding signal with ERG worked out at 0.97; with ELK4, 0.996; with ETV4, 1.06; with ETV1 it was 0.965.
For AGTTCT, the binding signal in the assay with ERG came to 1.11; with ELK4, 1.2; with ETV4, 1.13.
Consider TTTTAG, for which the binding signal in the assay with ERG was found to be 1.19; with ELK4 it was 1.1; with ETV4 it was 1.18; with ETV1, 1.19.
For the sequence GCCAAC, the binding signal turned out to be 0.969 with ERG, 0.893 with ELK4, 0.9 with ETV4 and 0.878 with ETV1.
Regarding TGAGCT, the binding signal with ERG came out at 0.979; with ELK4 it was 1.17; with ETV4, 1.14; in the assay with ETV1 it was 1.09.
In the case of CATTGC, the binding signal with ERG worked out at 1.11; with ELK4, 1.04; with ETV4, 1.07; with ETV1 it was 0.987.
As for GACACT, the binding signal with ERG was 0.986; with ELK4, 1.05; with ETV4, 1.09; in the assay with ETV1, 0.971; with ERF it was 0.922.
The matching figures for GGTTAC: 0.964, 0.995, 0.965, 0.977 and 0.991.
For CTAGAC, the binding signal amounted to 0.945 with ERG; 0.93 with ELK4; 0.963 in the assay with ETV4; 0.943 with ETV1; 0.959 with ERF.
On to ACGATG, for which the binding signal came to 1.13 with ERG; 0.976 in the assay with ELK4; 1.07 with ETV4; 1.12 in the assay with ETV1; 1.09 with ERF.
For TGGTCG the same measures were 0.99, 0.96, 0.925, 0.989 and 0.999.
With ACAAAG, the binding signal was 0.946 in the assay with ERG, 0.976 with ELK4, 0.948 with ETV4 and 0.973 in the assay with ETV1.
As for ACCGCT, the binding signal with ERG turned out to be 1.1; with ELK4, 1.18; in the assay with ETV4 it was 1.04; with ETV1 it was 0.999.
CACAAC: the binding signal in the assay with ERG was 1.25; with ELK4 it was 1.25; in the assay with ETV4 it was 1.26; with ETV1, 1.2; with ERF it was 1.36.
For the sequence CGGCCC, the binding signal turned out to be 0.903 with ERG, 0.97 in the assay with ELK4, 0.925 with ETV4 and 0.87 with ETV1.
On to AATGTG, for which the binding signal with ERG amounted to 0.988; in the assay with ELK4, 0.927; with ETV4, 0.99; with ETV1 it was 0.997; with ERF it was 1.01.
In the case of CGGTTA, the binding signal with ERG is 0.992; in the assay with ELK4 it was 0.924; with ETV4, 0.951; with ETV1, 0.955; in the assay with ERF, 0.931.
Regarding CCTGAA, the binding signal came to 1.41 with ERG, 1.41 with ELK4, 1.39 with ETV4 and 1.38 with ETV1.
On to GCCGAA, for which the binding signal was 0.955 with ERG, 0.97 with ELK4, 0.967 with ETV4 and 0.976 with ETV1.
For CCACGT the same measures were 0.945, 1.01, 1.02 and 1.01.
Consider TAATAC, for which the binding signal is 1.09 with ERG; 1.04 with ELK4; 1.13 in the assay with ETV4; 1.11 with ETV1; 1.14 in the assay with ERF.
On to GATCAC, for which the binding signal turned out to be 0.954 with ERG; 0.937 in the assay with ELK4; 0.984 with ETV4; 0.952 in the assay with ETV1; 0.994 with ERF.
On to TAGGCA, for which the binding signal with ERG was 1.06; with ELK4, 0.967; with ETV4, 1.01; in the assay with ETV1, 0.964; with ERF, 0.968.
The matching figures for TCGCGT: 0.933, 1.06, 0.919, 0.898 and 0.924.
On to GAATGA, for which the binding signal with ERG was found to be 0.953; in the assay with ELK4, 0.958; with ETV4 it was 0.962; in the assay with ETV1 it was 0.883; in the assay with ERF it was 0.883.
In the case of CATCAC, the binding signal with ERG was 1.15; with ELK4, 1.29; in the assay with ETV4, 1.26; in the assay with ETV1, 1.1.
Turning to GCCACA, the binding signal is 0.998 in the assay with ERG; 0.95 in the assay with ELK4; 0.903 with ETV4; 1.08 with ETV1; 0.99 with ERF.
The matching figures for GTCCAA: 0.908, 0.947, 0.934, 0.908 and 0.889.
For GGCTTT, the binding signal was 0.994 with ERG; 0.992 in the assay with ELK4; 1.05 with ETV4; 0.934 with ETV1; 0.956 with ERF.
On to GTGTCC, for which the binding signal with ERG came to 1.13; in the assay with ELK4 it was 0.897; with ETV4 it was 1.09; with ETV1, 1.02.
Consider TGATAG, for which the binding signal with ERG is 0.993; in the assay with ELK4, 1.02; with ETV4 it was 0.947; in the assay with ETV1, 0.95; in the assay with ERF, 1.04.
For the sequence TTTAGT, the binding signal in the assay with ERG was found to be 0.994; in the assay with ELK4, 0.945; with ETV4 it was 1.08; with ETV1 it was 0.993.
For CTAGTG, the binding signal is 0.833 with ERG; 0.907 in the assay with ELF1; 0.807 with ELK4; 0.859 with ETV4; 0.819 with ETV1; 0.934 with ERF.
Take GCGTTG: the binding signal in the assay with ERG is 0.891; in the assay with ELK4, 0.994; with ETV4, 0.853; with ETV1, 0.93.
For the sequence GCAGCA, the binding signal with ERG stood at 0.94; in the assay with ELK4, 0.887; in the assay with ETV4, 0.904; in the assay with ETV1, 0.928; in the assay with ERF, 0.985.
Turning to AGAATA, the binding signal came out at 0.98 with ERG; 1.02 in the assay with ELK4; 0.986 in the assay with ETV4; 0.948 in the assay with ETV1; 1.03 with ERF.
On to AACAAC, for which the binding signal with ERG was 1.29; with ELK4, 1.27; in the assay with ETV4, 1.31; in the assay with ETV1, 1.23.
In the case of CACCTA, the binding signal worked out at 0.978 in the assay with ERG, 1 in the assay with ELK4, 1.09 with ETV4 and 0.979 with ETV1.
ATCAAG: the binding signal with ERG was determined as 0.932; in the assay with ELF1, 0.937; with ELK4 it was 0.997; with ETV4, 0.932; in the assay with ETV1 it was 0.984; in the assay with ERF, 0.878.
For TGTCAT, the binding signal with ERG is 1.11; with ELK4, 1.08; in the assay with ETV4 it was 1.15; with ETV1, 1.18.
Take CCTGCC: the binding signal in the assay with ERG came out at 1.3; with ELK4, 1.14; with ETV4, 1.32; with ETV1, 1.26.
For ATGTAG, the binding signal with ERG amounted to 1.01; in the assay with ELK4 it was 1.15; with ETV4, 1.04; with ETV1, 0.939; in the assay with ERF, 1.14.
Turning to AGCAGA, the binding signal with ERG stood at 0.881; with ELF1 it was 0.923; in the assay with ELK4, 0.882; with ETV4, 0.891; in the assay with ETV1, 0.887; in the assay with ERF, 0.872.

The values are drawn from PMC7862700.
